# Reference: patent US8372867B2, “Insecticidal aryl isoxazoline derivatives” (Bayer CropScience AG, priority 2007, dated 2013)
# Some results were stated once for a whole list of compounds, not compound by compound. Some compounds share one range, which may span the group rather than tell each member.
# Tested on: Tetranychus urticae
# Assay: Test against Tetranychus urticae (spraying test)
# Assay type: in vivo
# Conditions: 100 ppm of the active compound; adult mites on kidney bean; 7 days after spraying
row,SMILES,acaricidal rate
1,"CC(=O)NCc1ccc(C2=NOC(c3cc(Cl)cc(Cl)c3)(C(F)(F)F)C2)cc1 (stereo not drawn) [1-1, N-{4-[5-(3,5-dichlorophenyl)-5-(trifluoromethyl)-4,5-dihydroisoxazol-3-yl]benzyl}acetamide]",98 (1 to 4 mites survived/propagated)
2,"CC(=O)N(Cc1ccccn1)C(C#N)c1ccc(C2=NOC(c3cc(Cl)cc(Cl)c3)(C(F)(F)F)C2)cc1 (stereo not drawn) [1-11, N-(cyano{4-[5-(3,5-dichlorophenyl)-5-(trifluoromethyl)-4,5-dihydroisoxazol-3-yl]phenyl}methyl)-N-(pyridin-2-ylmethyl)-acetamide]",98 (1 to 4 mites survived/propagated)
3,"CC(=O)N(Cc1ccccn1)Cc1ccc(C2=NOC(c3cc(Cl)cc(Cl)c3)(C(F)(F)F)C2)cc1Br (stereo not drawn) [1-15, N-{2-bromo-4-[5-(3,5-dichlorophenyl)-5-(trifluoromethyl)-4,5-dihydroisoxazol-3-yl]benzyl}-N-(pyridin-2-ylmethyl)acetamide]",98 (1 to 4 mites survived/propagated)
4,"CC(=S)NCc1ccc(C2=NOC(c3cc(Cl)cc(Cl)c3)(C(F)(F)F)C2)cc1Br (stereo not drawn) [1-44, N-{2-bromo-4-[5-(3,5-dichlorophenyl)-5-(trifluoromethyl)-4,5-dihydroisoxazol-3-yl]benzyl}ethanethioamide]",98 (1 to 4 mites survived/propagated)
5,"CC(=O)N(Cc1ccccn1)Cc1ccc(C2=NOC(c3cc(Cl)cc(Cl)c3)(C(F)(F)F)C2)cc1C#N (stereo not drawn) [1-61, N-{2-cyano-4-[5-(3,5-dichlorophenyl)-5-(trifluoromethyl)-4,5-dihydroisoxazol-3-yl]benzyl}-N-(pyridin-2-ylmethyl)acetamide]",98 (1 to 4 mites survived/propagated)
6,"CC(=O)NCc1ccc(C2=NOC(c3cc(Cl)cc(Cl)c3)(C(F)(F)F)C2)cc1C (stereo not drawn) [1-63, N-{4-[5-(3,5-dichlorophenyl)-5-(trifluoromethyl)-4,5-dihydroisoxazol-3-yl]-2-methylbenzyl}acetamide]",98 (1 to 4 mites survived/propagated)
